Residue numbers refer to the chain shown, from its start. Names may count otherwise. Results are given in words; binding and its absence hold for the method and conditions named. Tags and fused reporters may be left off the sequences shown. One block for each binder: values may come before it.
Tests used:
[1] = biological target: S. cerevisiae pseudouridine synthase PUS1 D134A, catalytically inactive, tagless (S. cerevisiae) (UniProt Q12211); assay: crystal structure
[2] = biological target: S. cerevisiae pseudouridine synthase PUS1, wild type, tagless (S. cerevisiae) (UniProt Q12211); assay: crystal structure

binding [1]: no binding
B1: S. cerevisiae pseudouridine synthase PUS1 D134A, catalytically inactive, tagless (enzyme, UniProt Q12211 1-544)
chain: MSEENLRPAYDDQVNEDVYKRGAQSKLTKARKADFDDEKDKKKDNDKHIDKRPKSGPRLDENGNPLPKEPRLPKRKVAVMVGYCGTGYHGMQYNPPNPTIESALFKAFVEAGAISKDNSNDLKKNGFMRAARTAKGVHAGGNLISLKMIIEDPDIKQKINEKLPEGIRVWDIERVNKAFDCRKMCSSRWYEYLLPTYSLIGPKPGSILYRDIEESKTELPGVLDEDLESKEFWEEFKKDANEKFSTEEIEAILAYVPPARDEFDINEELYQKVKKYKQLENAHRRRYRISAAKLAKFRASTSQYLGAHNFHNFTLGKDFKEPSAIRFMKDIKVSDPFVIGDAQTEWISIKIHGQSFMLHQIRKMVSMATLITRCGCPVERISQAYGQQKINIPKAPALGLLLEAPVFEGYNKRLEQFGYKAIDFSKYQDEVDKFKMKHIYDKIYKEEVDENVFNAFFSYIDSFNKVTGAQGEETADKSGPAVQKSIFEFLTAKGIPGLTDAPESNKKIKQRKRMEEEEAASKKAEISSTTQSNEPEVQPEAAAN

binding [2]: no binding
B2: S. cerevisiae pseudouridine synthase PUS1, wild type, tagless (enzyme, UniProt Q12211 1-544)
chain: B1 chain with A134D

From publication doi:10.1101/2021.12.08.471817
